The values that follow come from PMC11198909.

Construct, isoform or probe ends are uncertain for at least one entry.

This series has as its system Dorsal-His (Sogatella furcifera). The series can be described thus: EMSA. The following applies: 5 mM Mg2+, poly(dI-dC) 10 ug, 10 mM Tris-HCl pH 7.5, 0.25 mM DTT, 5 mM MgCl2, 10 mM KCl, probe 20 fmol, Dorsal-His 100 ug, 4 C 30 min, 5% native PAGE, recombinant protein, protein details: His (pEASY-Blunt E1), label: Cy5.

“ACTGGAATTACCCGGGAAATGAGATTTTCCAG (double strand) [defensin-Cy5-probe]”: the binding result is recorded as “binds”.
